Results as given in article doi:10.1101/2024.12.02.626298.
Like-named read-outs stand apart in the source and are kept apart here. These are yes or no findings as the source states them, for the method shown. Binding seen in cells or lysates may run through a third protein. Some results given as binding are weak or reduced against the parent protein; the word gives no strength. Where a sequence is shown, tags or fusion partners need not be part of it.

By UniProt entry, the sequences of proteins in these tests, tags left out. Where a name states a change or a piece, a line headed by the entry shows the natural chain unless it says otherwise.
UniProt A0QSL8: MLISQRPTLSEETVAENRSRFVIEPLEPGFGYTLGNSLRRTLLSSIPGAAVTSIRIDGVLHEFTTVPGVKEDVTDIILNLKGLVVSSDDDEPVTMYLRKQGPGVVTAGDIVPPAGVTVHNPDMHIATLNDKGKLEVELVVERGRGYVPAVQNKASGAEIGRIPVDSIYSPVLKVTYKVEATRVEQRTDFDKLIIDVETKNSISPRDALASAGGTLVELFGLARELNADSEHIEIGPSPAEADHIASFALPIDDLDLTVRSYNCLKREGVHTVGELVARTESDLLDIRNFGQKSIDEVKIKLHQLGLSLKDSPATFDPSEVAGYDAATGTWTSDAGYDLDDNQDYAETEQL

What was measured:
CarD-FLAG (M. smegmatis) [1] = biological target: T1, CarD-FLAG (M. smegmatis) (UniProt A0R561); assay: co-IP
T1 sequence: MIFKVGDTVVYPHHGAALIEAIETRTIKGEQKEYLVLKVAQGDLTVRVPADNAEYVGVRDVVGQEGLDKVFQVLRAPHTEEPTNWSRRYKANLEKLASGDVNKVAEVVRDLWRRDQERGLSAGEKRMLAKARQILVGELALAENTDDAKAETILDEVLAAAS

CarD-FLAG (M. smegmatis) [2] = biological target: T1, CarD-FLAG (M. smegmatis); assay: co-IP; remark: listed apart in the source

RNA polymerase (RNAP) (from UniProt A0QSL8 1-350; P60281 1-1169; A0QS66 1-1317; A0QWT1 1-107) (complex)
binding (CarD-FLAG (M. smegmatis) [1]): binds | binding (CarD-FLAG (M. smegmatis) [2]): binds
